Our source for the binding values is patent US20130280275A1.

The chains behind the UniProt entries cited, without tags or fusion partners. Residues count along the entry.
UniProt P43489, residues 29-277: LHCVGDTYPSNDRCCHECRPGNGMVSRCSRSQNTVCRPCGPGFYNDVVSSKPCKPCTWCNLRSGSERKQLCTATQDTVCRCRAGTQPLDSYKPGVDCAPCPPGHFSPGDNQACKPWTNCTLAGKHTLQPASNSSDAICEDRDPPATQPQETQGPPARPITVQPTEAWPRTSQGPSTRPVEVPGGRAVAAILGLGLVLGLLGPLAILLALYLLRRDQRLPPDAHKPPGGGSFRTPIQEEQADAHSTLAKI

In assay [1] the target is human OX40 (human) (UniProt P43489). In words: flow cytometry on mixed SUPM2 and SUPM2-hOX40 cells.
The target is the same in assay [2]. In words: flow cytometry on mixed L and L-hOX40 cells, 0.5 µg purified antibody, PE anti-mouse IgG. In general terms: A flow cytometer gives signals particle by particle.
Assay [3] shares this target. As to the kind of experiment: cell ELISA on dried L-hOX40 cells, anti-mouse IgG Fc HRP. In general terms: An ELISA detects its analyte on a solid surface through an enzyme-linked reagent.
For assay [4] the target is unchanged. In words: FACS binding assay on L/OX40 cells, PE goat anti-human IgG.
Assay [5] shares this target. As to the kind of experiment: FACS binding assay on L/hOX40 cells, PE goat anti-human IgG.
The target is the same in assay [6]. As to the kind of experiment: FACS binding assay on L/hOX40 cells.

These are yes or no findings as the source states them, for the method shown. Some results given as binding are weak or reduced against the parent protein; the word gives no strength.

B1: mouse 119-122 (antibody, V domains shown)
VH: EVQLVESGGGLVQPGESLKLSCESNEYEFPSHDMSWVRKTPEKRLELVAAINSDGGSTYYPDTMERRFIISRDNTKKTLYLQMSSLRSEDTALYYCARHYDDYYAWFAYWGQGTLVTVSA
VL: DIVLTQSPASLAVSLGQRATISCRASKSVSTSGYSYMHWYQQKPGQPPKLLIYLASNLESGVPARFSGSGSGTDFTLNIHPVEEEDAATYYCQHSRELPLTFGAGTKLELK
Consider B1, for which the binding result in the assay with human OX40 (human) [1], with human OX40 (human) [2] and in the assay with human OX40 (human) [3] was “binds” in each case.

B2: Chimeric 119-122 IgG1/kappa monoclonal antibody (antibody, V domains shown)
VH: EVQLVESGGGLVQPGESLKLSCESNEYEFPSHDMSWVRKTPEKRLELVAAINSDGGSTYYPDTMERRFIISRDNTKKTLYLQMSSLRSEDTALYYCARHYDDYYAWFAYWGQGTLVTVSA
VL: DIVLTQSPASLAVSLGQRATISCRASKSVSTSGYSYMHWYQQKPGQPPKLLIYLASNLESGVPARFSGSGSGTDFTLNIHPVEEEDAATYYCQHSRELPLTFGAGTKLELK
Take B2: the binding entry in the assay with human OX40 (human) [4] is reported as “binds”.

B3: Chimeric 106-222 IgG1/kappa monoclonal antibody (antibody, V domains shown)
VH: QIQLVQSGPELKKPGETVKISCKASGYTFTDYSMHWVKQAPGKGLKWMGWINTETGEPTYADDFKGRFAFSLETSASTAYLQINNLKNEDTATYFCANPYYDYVSYYAMDYWGHGTSVTVSS
VL: DIVMTQSHKFMSTSVRDRVSITCKASQDVSTAVAWYQQKPGQSPKLLIYSASYLYTGVPDRFTGSGSGTDFTFTISSVQAEDLAVYYCQQHYSTPRTFGGGTKLEIK
Take B3: the binding result in the assay with human OX40 (human) [5] is on record as “binds”.

B4: Humanized 106-222 IgG1/kappa monoclonal antibody (antibody, V domains shown)
VH: QVQLVQSGSELKKPGASVKVSCKASGYTFTDYSMHWVRQAPGQGLKWMGWINTETGEPTYADDFKGRFVFSLDTSVSTAYLQISSLKAEDTAVYYCANPYYDYVSYYAMDYWGQGTTVTVSS
VL: DIQMTQSPSSLSASVGDRVTITCKASQDVSTAVAWYQQKPGKAPKLLIYSASYLYTGVPSRFSGSGSGTDFTFTISSLQPEDIATYYCQQHYSTPRTFGQGTKLEIK
As to B4, the binding entry with human OX40 (human) [5] and with human OX40 (human) [6] was “binds” each time.

B5: Humanized 119-122 IgG1/kappa monoclonal antibody (antibody, V domains shown)
VH: EVQLVESGGGLVQPGGSLRLSCAASEYEFPSHDMSWVRQAPGKGLELVAAINSDGGSTYYPDTMERRFTISRDNAKNSLYLQMNSLRAEDTAVYYCARHYDDYYAWFAYWGQGTMVTVSS
VL: EIVLTQSPATLSLSPGERATLSCRASKSVSTSGYSYMHWYQQKPGQAPRLLIYLASNLESGVPARFSGSGSGTDFTLTISSLEPEDFAVYYCQHSRELPLTFGGGTKVEIK
Turning to B5, the binding entry in the assay with human OX40 (human) [4] was “binds”.
